# Experimental data: paper PMC7573076
# By UniProt entry, the sequences of proteins in these tests, tags left out. Residues count along the entry.
# UniProt Q8JFP1: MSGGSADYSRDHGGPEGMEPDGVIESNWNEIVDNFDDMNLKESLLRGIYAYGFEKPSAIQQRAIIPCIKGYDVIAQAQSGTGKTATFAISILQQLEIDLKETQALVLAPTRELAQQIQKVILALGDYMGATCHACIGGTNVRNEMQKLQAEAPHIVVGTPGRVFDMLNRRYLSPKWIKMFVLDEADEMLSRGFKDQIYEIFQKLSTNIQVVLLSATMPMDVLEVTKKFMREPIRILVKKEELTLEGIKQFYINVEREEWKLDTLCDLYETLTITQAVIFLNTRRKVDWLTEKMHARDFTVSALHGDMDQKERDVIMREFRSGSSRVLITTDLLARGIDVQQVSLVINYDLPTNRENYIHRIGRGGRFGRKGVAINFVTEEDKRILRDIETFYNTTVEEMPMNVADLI
# UniProt P08106: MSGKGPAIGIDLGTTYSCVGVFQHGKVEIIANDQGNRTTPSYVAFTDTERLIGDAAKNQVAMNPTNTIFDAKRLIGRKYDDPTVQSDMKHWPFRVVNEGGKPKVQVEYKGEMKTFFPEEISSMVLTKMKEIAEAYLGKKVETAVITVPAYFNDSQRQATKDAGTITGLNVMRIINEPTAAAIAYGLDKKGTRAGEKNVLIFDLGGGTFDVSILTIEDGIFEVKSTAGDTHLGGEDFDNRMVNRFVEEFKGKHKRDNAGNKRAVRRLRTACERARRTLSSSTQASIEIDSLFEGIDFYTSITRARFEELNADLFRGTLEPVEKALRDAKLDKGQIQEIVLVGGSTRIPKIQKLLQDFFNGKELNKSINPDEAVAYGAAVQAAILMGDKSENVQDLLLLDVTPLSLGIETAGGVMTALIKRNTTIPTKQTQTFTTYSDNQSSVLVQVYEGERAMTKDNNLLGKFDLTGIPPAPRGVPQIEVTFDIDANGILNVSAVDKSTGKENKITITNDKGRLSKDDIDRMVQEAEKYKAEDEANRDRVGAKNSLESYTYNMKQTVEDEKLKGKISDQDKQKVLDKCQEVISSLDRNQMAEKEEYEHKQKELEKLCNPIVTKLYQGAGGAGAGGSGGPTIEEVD
# UniProt Q90593, residues 17-652: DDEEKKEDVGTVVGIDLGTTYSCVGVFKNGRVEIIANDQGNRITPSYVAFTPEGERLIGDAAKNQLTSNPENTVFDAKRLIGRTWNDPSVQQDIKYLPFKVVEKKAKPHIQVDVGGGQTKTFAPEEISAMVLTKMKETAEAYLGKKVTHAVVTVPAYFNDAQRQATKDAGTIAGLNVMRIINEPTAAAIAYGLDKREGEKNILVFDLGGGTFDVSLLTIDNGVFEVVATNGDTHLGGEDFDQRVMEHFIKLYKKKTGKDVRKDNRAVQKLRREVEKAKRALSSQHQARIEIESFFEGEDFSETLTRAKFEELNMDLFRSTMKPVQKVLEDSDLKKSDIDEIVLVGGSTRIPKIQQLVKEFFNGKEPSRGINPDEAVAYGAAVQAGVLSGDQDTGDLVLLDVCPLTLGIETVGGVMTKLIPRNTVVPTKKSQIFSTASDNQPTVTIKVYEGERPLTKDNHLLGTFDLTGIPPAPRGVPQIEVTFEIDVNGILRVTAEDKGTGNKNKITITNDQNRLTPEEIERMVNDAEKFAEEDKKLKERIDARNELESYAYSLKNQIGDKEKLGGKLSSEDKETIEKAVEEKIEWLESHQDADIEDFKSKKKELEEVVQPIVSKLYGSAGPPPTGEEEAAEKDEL
# UniProt P00548: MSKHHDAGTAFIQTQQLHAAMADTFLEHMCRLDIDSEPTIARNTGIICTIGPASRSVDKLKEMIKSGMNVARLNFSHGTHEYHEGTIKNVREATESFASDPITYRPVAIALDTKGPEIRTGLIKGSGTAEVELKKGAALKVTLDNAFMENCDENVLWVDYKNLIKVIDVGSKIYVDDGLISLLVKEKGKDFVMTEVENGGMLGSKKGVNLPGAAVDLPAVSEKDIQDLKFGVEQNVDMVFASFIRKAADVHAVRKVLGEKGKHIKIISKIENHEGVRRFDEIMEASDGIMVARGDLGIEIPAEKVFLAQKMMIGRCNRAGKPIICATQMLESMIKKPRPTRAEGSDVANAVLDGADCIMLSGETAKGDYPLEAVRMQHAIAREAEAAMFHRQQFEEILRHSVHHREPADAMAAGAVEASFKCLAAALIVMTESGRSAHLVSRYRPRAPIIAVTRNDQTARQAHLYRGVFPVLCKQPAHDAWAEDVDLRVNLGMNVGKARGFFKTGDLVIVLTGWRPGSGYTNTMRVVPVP
# UniProt O73885: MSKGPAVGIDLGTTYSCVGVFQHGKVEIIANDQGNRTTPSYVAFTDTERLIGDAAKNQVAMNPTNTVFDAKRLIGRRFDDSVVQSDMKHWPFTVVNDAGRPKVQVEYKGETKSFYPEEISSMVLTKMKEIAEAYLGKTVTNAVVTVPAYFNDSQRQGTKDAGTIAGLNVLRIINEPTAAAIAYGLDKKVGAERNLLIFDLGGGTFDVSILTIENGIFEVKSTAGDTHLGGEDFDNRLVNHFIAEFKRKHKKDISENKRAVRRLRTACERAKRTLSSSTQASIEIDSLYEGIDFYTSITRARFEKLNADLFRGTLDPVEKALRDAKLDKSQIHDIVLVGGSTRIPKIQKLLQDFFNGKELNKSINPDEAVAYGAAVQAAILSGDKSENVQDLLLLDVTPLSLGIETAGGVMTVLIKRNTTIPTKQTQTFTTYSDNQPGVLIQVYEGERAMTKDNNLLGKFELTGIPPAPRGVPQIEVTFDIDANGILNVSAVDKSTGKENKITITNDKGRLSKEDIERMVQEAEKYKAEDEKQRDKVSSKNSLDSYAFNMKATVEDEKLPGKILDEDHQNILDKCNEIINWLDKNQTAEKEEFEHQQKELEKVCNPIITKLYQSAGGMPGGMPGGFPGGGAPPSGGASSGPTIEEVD
# UniProt P51913: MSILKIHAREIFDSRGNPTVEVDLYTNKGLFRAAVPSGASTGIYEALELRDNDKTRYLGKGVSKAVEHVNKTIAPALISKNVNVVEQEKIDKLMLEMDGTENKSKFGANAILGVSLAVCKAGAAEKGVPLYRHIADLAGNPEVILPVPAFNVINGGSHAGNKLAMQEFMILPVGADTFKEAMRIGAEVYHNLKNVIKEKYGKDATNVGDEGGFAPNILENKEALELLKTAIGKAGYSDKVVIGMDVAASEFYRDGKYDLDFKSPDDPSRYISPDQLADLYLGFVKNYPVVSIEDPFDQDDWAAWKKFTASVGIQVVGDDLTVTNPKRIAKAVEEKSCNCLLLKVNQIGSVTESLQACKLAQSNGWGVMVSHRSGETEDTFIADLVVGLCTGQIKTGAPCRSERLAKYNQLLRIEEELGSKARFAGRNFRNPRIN
# UniProt F1NWX0: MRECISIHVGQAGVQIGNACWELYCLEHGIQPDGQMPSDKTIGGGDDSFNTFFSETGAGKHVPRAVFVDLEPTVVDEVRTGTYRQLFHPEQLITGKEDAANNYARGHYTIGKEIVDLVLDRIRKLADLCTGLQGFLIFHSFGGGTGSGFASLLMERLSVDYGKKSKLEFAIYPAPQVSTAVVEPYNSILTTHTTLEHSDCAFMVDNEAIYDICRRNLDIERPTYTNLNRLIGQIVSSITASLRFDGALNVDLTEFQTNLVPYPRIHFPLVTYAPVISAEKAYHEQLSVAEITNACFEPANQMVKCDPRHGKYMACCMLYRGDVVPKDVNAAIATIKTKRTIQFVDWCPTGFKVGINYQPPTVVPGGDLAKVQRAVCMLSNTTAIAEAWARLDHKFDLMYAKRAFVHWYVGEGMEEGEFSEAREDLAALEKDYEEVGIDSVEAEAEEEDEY
# Results are given in words; binding and its absence hold for the method and conditions named. Binding seen in cells or lysates may run through a third protein. A yes stands for co-enrichment or nearness to the bait. Other partners may have been found. Tags and fused reporters may be left off the sequences shown.
# T1: GST–chMDA5-N (chicken) (UniProt D9N195)
# T1 sequence: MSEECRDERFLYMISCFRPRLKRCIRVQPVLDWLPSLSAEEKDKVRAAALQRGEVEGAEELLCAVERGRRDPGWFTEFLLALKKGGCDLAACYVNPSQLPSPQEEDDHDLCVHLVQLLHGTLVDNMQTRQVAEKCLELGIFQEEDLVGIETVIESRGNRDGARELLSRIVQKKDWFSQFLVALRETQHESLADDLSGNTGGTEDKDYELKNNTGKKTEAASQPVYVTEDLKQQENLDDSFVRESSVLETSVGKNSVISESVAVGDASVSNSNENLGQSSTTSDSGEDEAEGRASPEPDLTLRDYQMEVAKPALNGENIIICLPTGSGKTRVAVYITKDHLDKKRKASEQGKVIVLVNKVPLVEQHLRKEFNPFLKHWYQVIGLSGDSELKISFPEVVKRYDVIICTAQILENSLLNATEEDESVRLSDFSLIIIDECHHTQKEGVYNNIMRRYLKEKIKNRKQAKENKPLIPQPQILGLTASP
# B1: chicken NCL (protein, UniProt P15771 1-694)
# chain: MVKLAKTPKNQMKQKKMAPPPKKVEESEEEESSDLEESSGEEVMVPPKKQQKAAVTPAKKAATPAKKAATPAKKAVTPAKKAVATPAKKAVAPSPKKAAVVGKGAKNGKNAKKEESEEEDEDDEDDEEDEDEEEESDEEEEPAVPVKPAAKKSAAAVPAKKPAVVPAKQESEEEEEEDDEEEDEEDDESEDEAMDTTPAPVKKPTPAKATPAKAKAESEDEEDEEDEDEDEEDEDDEEEDEEESEDEKPVKEAPGKRKKEMANKSAPEAKKKKTETPASAFSLFVKNLTPTKDYEELRTAIKEFFGKKNLQVSEVRIGSSKRFGYVDFLSAEDMDKALQLNGKKLMGLEIKLEKAKSKESLKENKKERDARTLFVKNLPYRVTEDEMKNVFENALEVRLVLNKEGSSKGMAYIEFKTEAEAEKALEEKQGTEVDGRAMVIDYTGEKSQQESQKGGGERESKTLIVNNLSYAASEETLQELFKKATSIKMPQNNQGRPKGYAFVEFPTAEDAKEALNSCNNTEIEGRAIRLEFSSPSWQKGNMNARGGFNQQSKTLFVRGLSEDTTEETLRESFEGSISARIVTDRDTGSSKGFGFVDFSSPEDAKAAKEAMEDGEIDGNKVTLDFAKPKGEFQRGGGFGGGFGGRGGRGGRGGGRGGFGGRGGGRGFGGRGGGFRGGRGGGGDHKPQGKKIKFE
# B2: chicken PRDX1 (protein, UniProt P0CB50 1-199)
# chain: MSSGKAFIGKPAPDFTATAVMPDGQFKDIKLSDYRGKYVVFFFYPLDFTFVCPTEIIAYSDRADEFKKINCEIIGASVDSHFCHLAWINTPKKQGGLGTMKIPLVSDTKRVIAKDYGVLKEDEGIAYRGLFIIDEKGILRQITINDLPVGRSVDETLRLVQAFQFTDKHGEVCPAGWKPGSDTIKPDVQKSKEYFSKQK
# B3: chicken LRRC59 (protein, UniProt Q5F334 1-339)
# chain: MARGGGKSGSLKDKLDGNELDLSLCGLSEVPVRELAALPKATVLDLSCNSLVSLPSDFCSLTHLVKLDLSKNRLQQLPVDFGRLVSLQHLDLLNNRLVTLPVSFAQLKLSLHHSPVEILSRLLGTPSSLLVFHSFHSWENQNLKWLDLKDNPLDPVLAKVAGDCLDEKQCKQAAVRVLQHMKVIQSEQDRERQRKLQAEREMEKKREAEQRAREAQERELRKREKAEEKERRRREYDAQRAAKQEMEKKTKKETVQTRKLASSSRPPQPARHKHSWSRSVLRALLLVLLCILCTLAVCKLTELQHQPLCVSVNTLYEDVVAAVQNHKTLQNMLQQNSQQ
# Biological target: T1, GST–chMDA5-N (chicken)
# Experiment: affinity purification with mass spectrometry; DF1 cells transfected with pCDNA3.1-GST–chMDA5-N or empty GST vector, lysed 24 h later in RIPA buffer at 4°C, glutathione–agarose beads, elution with reduced glutathione, LC–MS/MS of the eluate and of differential silver-stained bands; proteins of the control removed
row,binding,Molecule
1,binds,chicken hnRNPH2
2,binds,chicken TUBA1A1
3,binds,chicken PABPC1
4,binds,chicken hnRNPA2B1
5,binds,chicken TUBB4B
6,binds,chicken EIF4A2 (from UniProt Q8JFP1 1-407)
7,binds,chicken FXR1
8,binds,chicken HSP70 (from UniProt P08106 1-634)
9,binds,chicken DDX5
10,binds,chicken RBM39
11,binds,chicken HSPA5 (from UniProt Q90593 17-652)
12,binds,chicken ARF1
13,binds,chicken IFIT5
14,binds,chicken RUVBL3
15,binds,chicken EEF1A1
16,binds,chicken SRSF3
17,binds,chicken PKM (from UniProt P00548 1-530)
18,binds,chicken RBM25
19,binds,chicken HSPA8 (from UniProt O73885 1-646)
20,binds,chicken ENO1 (from UniProt P51913 1-434)
21,binds,chicken TUBA3E (from UniProt F1NWX0 1-450)
22,binds,B1
23,binds,B2
24,binds,B3
